The results in this text go back to patent US20230382953A1.

Chains of the proteins cited; added tags and fusions are not shown.
UniProt Q15596: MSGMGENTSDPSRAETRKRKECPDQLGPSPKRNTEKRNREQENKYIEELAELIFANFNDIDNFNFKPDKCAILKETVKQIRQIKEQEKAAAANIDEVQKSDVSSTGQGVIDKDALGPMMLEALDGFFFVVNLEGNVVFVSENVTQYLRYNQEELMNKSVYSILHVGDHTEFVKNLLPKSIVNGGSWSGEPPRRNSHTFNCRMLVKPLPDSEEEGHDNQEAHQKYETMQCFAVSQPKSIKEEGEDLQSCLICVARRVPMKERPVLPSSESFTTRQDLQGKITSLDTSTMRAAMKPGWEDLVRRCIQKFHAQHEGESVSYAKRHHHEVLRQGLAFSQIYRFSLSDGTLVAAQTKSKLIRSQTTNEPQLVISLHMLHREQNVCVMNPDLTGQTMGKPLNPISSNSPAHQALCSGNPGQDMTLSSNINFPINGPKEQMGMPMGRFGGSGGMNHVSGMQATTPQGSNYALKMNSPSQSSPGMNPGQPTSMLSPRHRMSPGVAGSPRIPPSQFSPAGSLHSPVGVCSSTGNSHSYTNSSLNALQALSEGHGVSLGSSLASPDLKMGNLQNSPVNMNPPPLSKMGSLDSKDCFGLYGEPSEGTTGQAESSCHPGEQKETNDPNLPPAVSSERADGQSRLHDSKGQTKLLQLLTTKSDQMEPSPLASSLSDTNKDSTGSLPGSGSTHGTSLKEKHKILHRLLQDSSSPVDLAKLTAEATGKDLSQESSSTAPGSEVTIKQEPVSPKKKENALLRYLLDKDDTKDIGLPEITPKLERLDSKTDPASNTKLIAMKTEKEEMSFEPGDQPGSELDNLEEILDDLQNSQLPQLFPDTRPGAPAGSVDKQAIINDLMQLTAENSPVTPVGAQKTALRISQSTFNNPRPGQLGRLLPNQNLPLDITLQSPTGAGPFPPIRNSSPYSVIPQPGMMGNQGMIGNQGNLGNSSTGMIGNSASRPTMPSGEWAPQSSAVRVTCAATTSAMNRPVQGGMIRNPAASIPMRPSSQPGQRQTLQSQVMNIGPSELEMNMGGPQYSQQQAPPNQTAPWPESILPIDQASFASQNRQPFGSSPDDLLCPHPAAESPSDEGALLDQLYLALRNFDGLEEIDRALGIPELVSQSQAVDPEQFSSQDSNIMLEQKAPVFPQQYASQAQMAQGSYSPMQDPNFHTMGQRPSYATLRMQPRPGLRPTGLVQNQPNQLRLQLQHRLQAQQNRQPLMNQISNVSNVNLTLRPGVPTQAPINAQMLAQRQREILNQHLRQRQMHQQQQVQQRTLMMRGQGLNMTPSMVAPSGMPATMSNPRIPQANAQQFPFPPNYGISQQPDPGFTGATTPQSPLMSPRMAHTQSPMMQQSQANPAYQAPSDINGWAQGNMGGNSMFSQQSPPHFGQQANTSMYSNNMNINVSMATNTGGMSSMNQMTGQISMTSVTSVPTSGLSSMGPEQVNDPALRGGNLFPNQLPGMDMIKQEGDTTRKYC
UniProt F5HCV3: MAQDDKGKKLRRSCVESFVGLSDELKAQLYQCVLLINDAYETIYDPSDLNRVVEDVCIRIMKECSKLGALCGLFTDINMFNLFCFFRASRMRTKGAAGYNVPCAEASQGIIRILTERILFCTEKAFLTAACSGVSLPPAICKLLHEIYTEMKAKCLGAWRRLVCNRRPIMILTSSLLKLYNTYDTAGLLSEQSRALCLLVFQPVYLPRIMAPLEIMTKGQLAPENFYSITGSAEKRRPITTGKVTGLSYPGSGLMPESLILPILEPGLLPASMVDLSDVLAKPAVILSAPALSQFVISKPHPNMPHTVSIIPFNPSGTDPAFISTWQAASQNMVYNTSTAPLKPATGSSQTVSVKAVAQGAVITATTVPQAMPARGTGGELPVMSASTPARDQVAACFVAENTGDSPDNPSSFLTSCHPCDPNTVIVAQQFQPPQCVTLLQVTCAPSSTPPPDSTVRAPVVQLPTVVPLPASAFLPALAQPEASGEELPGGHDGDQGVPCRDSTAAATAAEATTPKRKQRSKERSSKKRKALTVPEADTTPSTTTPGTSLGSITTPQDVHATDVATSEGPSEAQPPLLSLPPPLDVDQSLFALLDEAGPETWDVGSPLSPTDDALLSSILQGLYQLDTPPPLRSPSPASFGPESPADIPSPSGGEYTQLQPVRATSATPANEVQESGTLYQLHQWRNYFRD

These are yes or no findings as the source states them, for the method shown. In cells and extracts the contact can be indirect. Here binding means that the protein was enriched with, or labelled near, the bait; the list need not be complete.

This test concerns the target NCoA2 (UniProt Q15596). In words: biochemical and genetic approaches (GST pull-down, ChIP with mass spectrometry; FIG. 1).

As to KSHV ORF50 (from UniProt F5HCV3 1-691), the binding result is reported as “binds”.
